Experimental data as given in PMC4886823.

Molecular target: FLAG–DCNL1 (WT) (human), Q96GG9
Assay: affinity purification with mass spectrometry; FLAG(M2)-magnetic bead immunoprecipitation from lysates of HEK-293 cells stably expressing N-terminally FLAG-tagged DCNLs; eluate trypsin-digested, Orbitrap, MaxQuant; interactors with >3 unique peptides plotted
Settings: remark: other sources report otherwise

B1: Cul2, Q13617 1-745 (protein)
chain: MSLKPRVVDFDETWNKLLTTIKAVVMLEYVERATWNDRFSDIYALCVAYPEPLGERLYTETKIFLENHVRHLHKRVLESEEQVLVMYHRYWEEYSKGADYMDCLYRYLNTQFIKKNKLTEADLQYGYGGVDMNEPLMEIGELALDMWRKLMVEPLQAILIRMLLREIKNDRGGEDPNQKVIHGVINSFVHVEQYKKKFPLKFYQEIFESPFLTETGEYYKQEASNLLQESNCSQYMEKVLGRLKDEEIRCRKYLHPSSYTKVIHECQQRMVADHLQFLHAECHNIIRQEKKNDMANMYVLLRAVSTGLPHMIQELQNHIHDEGLRATSNLTQENMPTLFVESVLEVHGKFVQLINTVLNGDQHFMSALDKALTSVVNYREPKSVCKAPELLAKYCDNLLKKSAKGMTENEVEDRLTSFITVFKYIDDKDVFQKFYARMLAKRLIHGLSMSMDSEEAMINKLKQACGYEFTSKLHRMYTDMSVSADLNNKFNNFIKNQDTVIDLGISFQIYVLQAGAWPLTQAPSSTFAIPQELEKSVQMFELFYSQHFSGRKLTWLHYLCTGEVKMNYLGKPYVAMVTTYQMAVLLAFNNSETVSYKELQDSTQMNEKELTKTIKSLLDVKMINHDSEKEDIDAESSFSLNMNFSSKRTKFKITTSMQKDTPQEMEQTRSAVDEDRKMYLQAAIVRIMKARKVLRHNALIQEVISQSRARFNPSISMIKKCIEVLIDKQYIERSQASADEYSYVA
In the case of B1, the binding is reported as “binds”.

These are yes or no findings as the source states them, for the method shown. In cells and extracts the contact can be indirect. Here binding means that the protein was enriched with, or labelled near, the bait; the list need not be complete.
